Test results as given in US20040072746A1, “Inhibitors of monocarboxylate transport” (priority 2001, published 2004).
These are yes or no findings as the source states them, for the method shown. Some entries that bind do so weakly or less than the wild type. Tags and fused reporters may be left off the sequences shown.

Amino acid sequences for entries named in this document (tags omitted). A change or cut given only in a name is not applied to a line headed by its entry.
UniProt P22629: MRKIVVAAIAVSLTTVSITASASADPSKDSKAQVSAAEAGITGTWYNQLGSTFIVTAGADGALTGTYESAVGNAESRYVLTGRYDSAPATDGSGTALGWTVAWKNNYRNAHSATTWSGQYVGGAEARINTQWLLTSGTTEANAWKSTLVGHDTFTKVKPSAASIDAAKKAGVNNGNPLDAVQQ

Molecular target: T1, human MCT1 with a Strep Tag at the C-terminus (human) (UniProt P53985)
T1 sequence: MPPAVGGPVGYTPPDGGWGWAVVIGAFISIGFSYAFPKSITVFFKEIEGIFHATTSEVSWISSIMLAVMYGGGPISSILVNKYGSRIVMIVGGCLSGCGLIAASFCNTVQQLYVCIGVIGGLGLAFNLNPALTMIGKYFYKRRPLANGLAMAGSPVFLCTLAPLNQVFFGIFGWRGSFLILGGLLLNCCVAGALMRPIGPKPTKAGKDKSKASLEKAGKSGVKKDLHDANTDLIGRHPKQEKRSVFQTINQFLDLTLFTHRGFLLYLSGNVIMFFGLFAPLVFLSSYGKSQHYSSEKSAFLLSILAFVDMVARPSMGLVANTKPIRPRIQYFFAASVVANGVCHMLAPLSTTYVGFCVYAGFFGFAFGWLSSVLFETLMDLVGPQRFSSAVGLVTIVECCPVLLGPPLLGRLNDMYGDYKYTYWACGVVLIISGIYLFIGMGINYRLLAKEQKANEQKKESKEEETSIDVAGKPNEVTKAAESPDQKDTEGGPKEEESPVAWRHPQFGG
Assay: Western blot of yeast expressing strep tagged MCT1

- binding: binds
Substance: streptavidin-horseradish peroxidase conjugate (IBA GmbH) (from UniProt P22629 37-163; P00433 31-338)
